The list shows a part of the results.

By UniProt entry, the sequences of proteins in these tests, tags left out. Where a name states a change or a piece, a line headed by the entry shows the natural chain unless it says otherwise.
UniProt P02750: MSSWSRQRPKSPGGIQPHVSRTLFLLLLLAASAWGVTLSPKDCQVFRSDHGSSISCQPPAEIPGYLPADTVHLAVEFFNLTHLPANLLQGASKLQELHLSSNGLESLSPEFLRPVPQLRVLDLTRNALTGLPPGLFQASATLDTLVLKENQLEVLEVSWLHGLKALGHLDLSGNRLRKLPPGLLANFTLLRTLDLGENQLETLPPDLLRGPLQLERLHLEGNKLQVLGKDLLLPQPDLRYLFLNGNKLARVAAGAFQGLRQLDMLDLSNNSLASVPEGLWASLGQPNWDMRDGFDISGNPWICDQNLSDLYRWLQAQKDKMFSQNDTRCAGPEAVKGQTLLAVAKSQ
UniProt P49917: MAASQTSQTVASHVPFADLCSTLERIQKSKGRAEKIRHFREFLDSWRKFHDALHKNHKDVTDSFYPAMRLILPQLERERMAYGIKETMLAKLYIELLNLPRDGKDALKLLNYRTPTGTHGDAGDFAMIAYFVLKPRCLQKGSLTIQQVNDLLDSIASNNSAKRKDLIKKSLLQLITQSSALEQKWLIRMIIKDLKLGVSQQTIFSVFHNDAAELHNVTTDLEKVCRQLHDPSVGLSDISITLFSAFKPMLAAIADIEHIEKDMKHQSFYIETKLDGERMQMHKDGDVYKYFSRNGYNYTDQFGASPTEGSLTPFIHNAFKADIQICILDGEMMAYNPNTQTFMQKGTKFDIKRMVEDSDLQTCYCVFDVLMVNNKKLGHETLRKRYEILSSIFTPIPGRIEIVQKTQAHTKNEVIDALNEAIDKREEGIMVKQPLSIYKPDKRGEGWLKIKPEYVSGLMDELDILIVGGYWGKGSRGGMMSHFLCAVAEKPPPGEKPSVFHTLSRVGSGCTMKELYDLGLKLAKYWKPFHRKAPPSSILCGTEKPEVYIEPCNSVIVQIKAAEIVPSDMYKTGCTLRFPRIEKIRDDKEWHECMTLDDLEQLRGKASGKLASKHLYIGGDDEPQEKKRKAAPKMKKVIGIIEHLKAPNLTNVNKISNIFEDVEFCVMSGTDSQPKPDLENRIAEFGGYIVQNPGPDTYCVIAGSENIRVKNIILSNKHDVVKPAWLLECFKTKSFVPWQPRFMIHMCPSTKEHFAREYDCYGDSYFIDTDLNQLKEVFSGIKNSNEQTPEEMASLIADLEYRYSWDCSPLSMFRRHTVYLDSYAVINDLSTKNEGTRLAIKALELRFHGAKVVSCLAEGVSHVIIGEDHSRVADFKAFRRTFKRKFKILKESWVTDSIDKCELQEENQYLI
UniProt Q96GY3: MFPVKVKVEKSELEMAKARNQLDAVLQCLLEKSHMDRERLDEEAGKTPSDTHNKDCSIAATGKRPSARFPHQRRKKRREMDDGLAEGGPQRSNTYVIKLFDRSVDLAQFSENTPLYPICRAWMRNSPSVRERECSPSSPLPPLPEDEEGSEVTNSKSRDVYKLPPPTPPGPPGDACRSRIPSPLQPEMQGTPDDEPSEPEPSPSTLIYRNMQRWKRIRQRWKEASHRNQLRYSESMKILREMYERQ
UniProt Q15334: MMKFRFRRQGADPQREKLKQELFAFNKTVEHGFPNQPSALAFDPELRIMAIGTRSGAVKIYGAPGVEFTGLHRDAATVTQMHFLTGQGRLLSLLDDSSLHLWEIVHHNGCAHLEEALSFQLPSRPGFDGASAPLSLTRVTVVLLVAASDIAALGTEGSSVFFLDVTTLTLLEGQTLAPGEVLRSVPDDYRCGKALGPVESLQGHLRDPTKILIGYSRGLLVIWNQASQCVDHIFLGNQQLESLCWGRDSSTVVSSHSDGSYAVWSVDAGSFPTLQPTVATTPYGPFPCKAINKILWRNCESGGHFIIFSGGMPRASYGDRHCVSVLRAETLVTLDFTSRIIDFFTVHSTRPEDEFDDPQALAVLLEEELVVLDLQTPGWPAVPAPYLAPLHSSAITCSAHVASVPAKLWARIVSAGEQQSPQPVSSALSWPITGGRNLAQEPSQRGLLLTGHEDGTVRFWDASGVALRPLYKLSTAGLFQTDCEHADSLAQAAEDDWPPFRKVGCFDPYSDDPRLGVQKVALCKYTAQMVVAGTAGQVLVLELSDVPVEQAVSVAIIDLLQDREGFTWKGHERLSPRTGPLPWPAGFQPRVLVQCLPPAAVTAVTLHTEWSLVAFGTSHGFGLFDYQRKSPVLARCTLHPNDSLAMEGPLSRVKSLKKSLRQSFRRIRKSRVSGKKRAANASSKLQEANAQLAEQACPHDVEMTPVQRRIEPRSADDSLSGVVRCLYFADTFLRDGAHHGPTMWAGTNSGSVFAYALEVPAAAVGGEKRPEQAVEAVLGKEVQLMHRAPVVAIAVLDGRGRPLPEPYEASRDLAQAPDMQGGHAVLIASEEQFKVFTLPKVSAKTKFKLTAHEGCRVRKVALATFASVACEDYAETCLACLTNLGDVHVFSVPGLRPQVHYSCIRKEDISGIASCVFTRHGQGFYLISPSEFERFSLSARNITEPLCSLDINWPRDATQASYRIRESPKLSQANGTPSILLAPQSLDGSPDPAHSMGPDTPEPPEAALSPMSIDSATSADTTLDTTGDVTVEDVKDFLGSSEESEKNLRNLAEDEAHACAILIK
UniProt Q8N3Y3: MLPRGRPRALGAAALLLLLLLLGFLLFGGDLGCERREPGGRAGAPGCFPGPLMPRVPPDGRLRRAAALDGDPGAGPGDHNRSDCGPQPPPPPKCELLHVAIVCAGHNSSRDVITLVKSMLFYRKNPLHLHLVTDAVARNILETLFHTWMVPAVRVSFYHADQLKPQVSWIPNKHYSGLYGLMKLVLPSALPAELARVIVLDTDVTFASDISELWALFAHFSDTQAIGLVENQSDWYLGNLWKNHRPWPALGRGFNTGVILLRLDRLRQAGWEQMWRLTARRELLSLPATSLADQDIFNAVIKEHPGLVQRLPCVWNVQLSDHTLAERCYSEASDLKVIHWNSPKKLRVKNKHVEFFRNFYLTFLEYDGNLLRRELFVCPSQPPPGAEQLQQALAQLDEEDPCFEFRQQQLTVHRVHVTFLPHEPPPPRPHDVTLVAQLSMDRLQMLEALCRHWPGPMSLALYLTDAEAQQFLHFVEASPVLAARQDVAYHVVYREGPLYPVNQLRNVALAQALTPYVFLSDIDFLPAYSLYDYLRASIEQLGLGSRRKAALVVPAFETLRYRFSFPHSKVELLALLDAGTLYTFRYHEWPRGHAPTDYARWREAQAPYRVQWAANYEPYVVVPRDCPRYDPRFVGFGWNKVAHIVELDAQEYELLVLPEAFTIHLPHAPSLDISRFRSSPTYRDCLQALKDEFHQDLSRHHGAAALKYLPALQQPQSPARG
UniProt P06858: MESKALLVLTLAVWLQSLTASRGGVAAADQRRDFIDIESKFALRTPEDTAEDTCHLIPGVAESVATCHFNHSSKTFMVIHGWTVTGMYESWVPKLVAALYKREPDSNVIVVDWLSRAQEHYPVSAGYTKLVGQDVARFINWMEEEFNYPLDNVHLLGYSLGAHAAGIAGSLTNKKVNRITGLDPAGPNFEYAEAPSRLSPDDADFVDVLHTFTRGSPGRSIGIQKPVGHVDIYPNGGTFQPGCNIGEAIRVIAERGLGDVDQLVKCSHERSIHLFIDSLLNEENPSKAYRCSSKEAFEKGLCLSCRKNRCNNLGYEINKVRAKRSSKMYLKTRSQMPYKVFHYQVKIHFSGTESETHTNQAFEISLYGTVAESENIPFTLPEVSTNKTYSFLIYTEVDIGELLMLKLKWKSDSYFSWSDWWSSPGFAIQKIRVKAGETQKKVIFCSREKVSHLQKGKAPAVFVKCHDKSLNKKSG
UniProt A6NK58: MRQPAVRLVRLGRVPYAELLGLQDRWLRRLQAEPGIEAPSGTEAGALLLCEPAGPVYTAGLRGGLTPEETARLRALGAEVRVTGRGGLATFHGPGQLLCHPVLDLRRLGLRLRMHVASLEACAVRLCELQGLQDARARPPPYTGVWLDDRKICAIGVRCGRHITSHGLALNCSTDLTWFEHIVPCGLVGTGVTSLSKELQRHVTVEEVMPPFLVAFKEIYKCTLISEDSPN
UniProt O15243: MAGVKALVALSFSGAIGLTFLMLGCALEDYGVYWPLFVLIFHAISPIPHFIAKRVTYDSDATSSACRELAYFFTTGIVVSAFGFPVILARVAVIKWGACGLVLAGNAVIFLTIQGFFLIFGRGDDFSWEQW
UniProt Q5T7N2: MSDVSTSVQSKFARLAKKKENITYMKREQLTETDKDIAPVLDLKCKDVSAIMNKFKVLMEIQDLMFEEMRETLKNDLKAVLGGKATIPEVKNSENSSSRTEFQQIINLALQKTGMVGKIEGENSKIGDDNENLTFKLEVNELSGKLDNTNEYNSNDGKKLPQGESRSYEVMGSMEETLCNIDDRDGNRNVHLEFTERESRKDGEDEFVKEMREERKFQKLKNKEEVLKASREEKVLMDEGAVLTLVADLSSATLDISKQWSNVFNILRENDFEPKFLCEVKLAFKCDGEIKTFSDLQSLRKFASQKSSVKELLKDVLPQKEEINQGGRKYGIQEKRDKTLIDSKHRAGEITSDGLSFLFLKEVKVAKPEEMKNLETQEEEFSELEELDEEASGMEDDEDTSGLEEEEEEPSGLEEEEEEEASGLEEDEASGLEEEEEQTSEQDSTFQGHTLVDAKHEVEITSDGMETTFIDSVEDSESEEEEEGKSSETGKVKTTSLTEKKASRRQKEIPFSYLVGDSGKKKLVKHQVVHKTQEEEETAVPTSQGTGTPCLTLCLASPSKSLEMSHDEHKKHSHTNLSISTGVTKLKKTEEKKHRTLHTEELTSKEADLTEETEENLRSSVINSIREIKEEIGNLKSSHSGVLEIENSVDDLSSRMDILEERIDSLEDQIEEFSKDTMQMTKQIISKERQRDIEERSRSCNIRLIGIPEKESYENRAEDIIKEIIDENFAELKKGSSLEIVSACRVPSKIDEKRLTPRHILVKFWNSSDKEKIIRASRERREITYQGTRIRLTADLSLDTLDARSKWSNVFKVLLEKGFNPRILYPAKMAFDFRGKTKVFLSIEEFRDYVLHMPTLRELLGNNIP
UniProt Q53QV2: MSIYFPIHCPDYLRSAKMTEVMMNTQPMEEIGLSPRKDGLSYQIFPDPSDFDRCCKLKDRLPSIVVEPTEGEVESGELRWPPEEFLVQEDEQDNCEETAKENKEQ
UniProt Q9Y234: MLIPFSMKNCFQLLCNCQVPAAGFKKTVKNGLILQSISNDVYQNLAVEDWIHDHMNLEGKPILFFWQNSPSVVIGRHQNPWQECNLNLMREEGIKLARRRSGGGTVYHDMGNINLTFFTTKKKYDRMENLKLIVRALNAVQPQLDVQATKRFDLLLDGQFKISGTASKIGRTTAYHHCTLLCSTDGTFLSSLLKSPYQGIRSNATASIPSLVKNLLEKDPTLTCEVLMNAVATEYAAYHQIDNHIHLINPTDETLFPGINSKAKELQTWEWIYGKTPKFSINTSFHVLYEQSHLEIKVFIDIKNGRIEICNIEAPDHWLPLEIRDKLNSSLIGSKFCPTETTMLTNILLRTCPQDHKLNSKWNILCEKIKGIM
UniProt Q96JN0: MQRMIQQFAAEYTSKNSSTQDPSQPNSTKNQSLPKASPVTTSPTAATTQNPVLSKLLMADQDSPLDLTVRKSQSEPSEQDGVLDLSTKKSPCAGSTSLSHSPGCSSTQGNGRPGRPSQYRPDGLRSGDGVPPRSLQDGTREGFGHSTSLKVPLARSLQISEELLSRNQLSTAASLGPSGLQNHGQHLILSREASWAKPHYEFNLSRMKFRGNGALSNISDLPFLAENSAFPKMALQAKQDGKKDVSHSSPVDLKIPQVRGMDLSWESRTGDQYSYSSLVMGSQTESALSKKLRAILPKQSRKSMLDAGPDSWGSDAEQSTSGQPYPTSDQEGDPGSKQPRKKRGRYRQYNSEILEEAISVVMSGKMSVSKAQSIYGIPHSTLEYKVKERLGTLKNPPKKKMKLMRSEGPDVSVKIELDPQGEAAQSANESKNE
UniProt Q52LA3: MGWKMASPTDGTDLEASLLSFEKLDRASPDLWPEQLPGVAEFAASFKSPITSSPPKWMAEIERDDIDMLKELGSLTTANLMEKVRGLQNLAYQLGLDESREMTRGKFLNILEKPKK
UniProt P23490: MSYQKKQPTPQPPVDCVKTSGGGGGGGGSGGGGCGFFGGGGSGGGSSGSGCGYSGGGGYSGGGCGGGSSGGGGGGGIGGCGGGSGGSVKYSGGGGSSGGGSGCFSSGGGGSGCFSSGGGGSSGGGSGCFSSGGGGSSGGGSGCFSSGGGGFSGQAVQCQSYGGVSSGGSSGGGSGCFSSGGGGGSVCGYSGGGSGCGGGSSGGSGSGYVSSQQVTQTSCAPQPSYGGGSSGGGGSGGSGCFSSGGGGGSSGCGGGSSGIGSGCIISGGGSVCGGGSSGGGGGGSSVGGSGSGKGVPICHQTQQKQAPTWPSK
UniProt Q3ZCW2: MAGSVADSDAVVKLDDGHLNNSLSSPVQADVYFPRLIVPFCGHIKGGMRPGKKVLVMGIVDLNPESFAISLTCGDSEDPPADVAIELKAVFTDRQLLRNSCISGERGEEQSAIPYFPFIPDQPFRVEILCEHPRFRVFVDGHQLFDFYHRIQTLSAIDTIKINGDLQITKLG

Compound in the first experiment: NC(=O)Nc1cc(-c2cccc(F)c2)sc1C(=O)N[C@H]1CCCNC1
Put plainly: log2 fold change, soluble protein after heating vs DMSO (PISA); higher = thermal stabilisation; K562 cells, 10 uM, 30 min; active = over 0.2 and 3.5 SD of the protein, either way, in both replicates (recomputed). In a few lines:
(§1)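 K562 cells at 2×10^6 cells/mL were treated for 30 min with 10 μM compound, and aliquots were heated for 3 min over 48°C-58°C before pooling. Extraction used PBS with 0.5% NP-40 at 4°C, and soluble protein was the supernatant after 21,000xg for 90 min, measured by TMTpro 16plex LC-MS/MS with channel sums equalised. Thermal stability values, relative to control samples and from duplicates, are log2 fold changes.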
Regarding LIMD2 (UniProt Q9BT23), the log2 fold change was inactive: -0.035.

Regarding LRG1 (UniProt P02750), the log2 fold change is inactive: 0.102.

On to LIG4 (UniProt P49917), for which the log2 fold change is inactive: 0.062.

For the target LIN37 (UniProt Q96GY3), the log2 fold change is inactive: -0.077.

As for LLGL1 (UniProt Q15334), the log2 fold change was inactive: -0.073.

For the target LAPTM4A (UniProt Q15012), the log2 fold change is inactive: -0.148.

LARP1B, A0A3B3ISF0: the log2 fold change is inactive: 0.13.

As to LRCH4 (UniProt O75427), the log2 fold change is inactive: 0.176.

With LARGE2 (UniProt Q8N3Y3), the log2 fold change is inactive: 0.023.

With LCN2 isoform 2 (UniProt P80188), the log2 fold change is inactive: 1.25.

As for LPL (UniProt P06858), the log2 fold change was inactive: -0.032.

Regarding LIPT2 (UniProt A6NK58), the log2 fold change is inactive: 0.26.

Compound in another experiment: NC(=O)c1cnc(N[C@@H]2CCCC[C@@H]2N)nc1Nc1cccc(-n2nccn2)c1
Described as above. In a few lines:
as §1
With LIMD2 (UniProt Q9BT23), the log2 fold change is inactive: 0.044.

Regarding LEPROT (UniProt O15243), the log2 fold change is inactive: -0.161.

In the case of L1TD1 (UniProt Q5T7N2), the log2 fold change is inactive: -0.472.

Regarding LIN37 (UniProt Q96GY3), the log2 fold change was inactive: -0.064.

Regarding LRP1 (UniProt Q07954), the log2 fold change is inactive: -0.084.

LBH (UniProt Q53QV2): the log2 fold change is inactive: 0.029.

For the target LPL (UniProt P06858), the log2 fold change is inactive: 0.088.

For the target LGALS3BP (UniProt Q08380), the log2 fold change is inactive: 0.185.

Regarding LIPT1 (UniProt Q9Y234), the log2 fold change is inactive: 0.155.

Consider LCOR isoform 3 (UniProt Q96JN0), for which the log2 fold change was inactive: 0.042.

Compound in another experiment: NC1(c2ccc(-c3nc4ccn5c(=O)[nH]nc5c4cc3-c3ccccc3)cc2)CCC1
The experiment is described as above. In a few lines: as §1
With LRG1 (UniProt P02750), the log2 fold change is inactive: -0.002.

Turning to LEPROT (UniProt O15243), the log2 fold change was inactive: -0.088.

For L1TD1 (UniProt Q5T7N2), the log2 fold change is inactive: -0.341.

Regarding LAMB2 (UniProt P55268), the log2 fold change is inactive: -0.187.

As for LRP1 (UniProt Q07954), the log2 fold change is inactive: -0.163.

Consider LBH (UniProt Q53QV2), for which the log2 fold change is inactive: 0.079.

LPL (UniProt P06858): the log2 fold change was inactive: 0.124.

With LIN52 (UniProt Q52LA3), the log2 fold change was inactive: 0.294.

As for LIPT1 (UniProt Q9Y234), the log2 fold change is inactive: 0.35.

Regarding LOR (UniProt P23490), the log2 fold change was inactive: 0.183.

As for LGALSL (UniProt Q3ZCW2), the log2 fold change was inactive: -0.035.

For the origin of these results see the supplement of paper PMC10849652.
